This experiment has as its target T1, SNAP-GIPR (glucose-dependent insulinotropic polypeptide receptor with an N-terminal SNAP-tag), P48546.
T1 chain: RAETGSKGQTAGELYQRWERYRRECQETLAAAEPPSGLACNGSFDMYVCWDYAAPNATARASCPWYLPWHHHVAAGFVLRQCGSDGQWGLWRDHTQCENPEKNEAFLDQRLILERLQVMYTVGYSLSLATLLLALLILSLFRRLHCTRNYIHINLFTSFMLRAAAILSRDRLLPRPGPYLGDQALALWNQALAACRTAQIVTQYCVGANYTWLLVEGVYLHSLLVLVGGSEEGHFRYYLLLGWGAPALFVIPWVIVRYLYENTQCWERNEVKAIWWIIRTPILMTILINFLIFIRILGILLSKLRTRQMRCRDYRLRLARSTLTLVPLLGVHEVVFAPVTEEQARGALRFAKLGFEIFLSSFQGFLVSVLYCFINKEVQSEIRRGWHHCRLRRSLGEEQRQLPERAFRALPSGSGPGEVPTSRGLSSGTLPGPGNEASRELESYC
In words: FRET or BRET; FRET by acceptor bleaching between Halo-GLP1R (CA-SS-SulfoCy3) and SNAP-GIPR (BG-SS-SulfoCy5) once internalized in co-expressing cells. The settings on record: remark: other sources report otherwise. A general note: BRET reads energy transfer from a luciferase to a nearby fluorophore.

These are yes or no findings as the source states them, for the method shown. In cells and extracts the contact can be indirect. Tags and fused reporters may be left off the sequences shown.

We go through one molecule from PMC11599839.

B1: Halo-GLP1R (glucagon-like peptide-1 receptor with an N-terminal Halo-tag), P43220 24-463 (receptor)
chain: RPQGATVSLWETVQKWREYRRQCQRSLTEDPPPATDLFCNRTFDEYACWPDGEPGSFVNVSCPWYLPWASSVPQGHVYRFCTAEGLWLQKDNSSLPWRDLSECEESKRGERSSPEEQLLFLYIIYTVGYALSFSALVIASAILLGFRHLHCTRNYIHLNLFASFILRALSVFIKDAALKWMYSTAAQQHQWDGLLSYQDSLSCRLVFLLMQYCVAANYYWLLVEGVYLYTLLAFSVLSEQWIFRLYVSIGWGVPLLFVVPWGIVKYLYEDEGCWTRNSNMNYWLIIRLPILFAIGVNFLIFVRVICIVVSKLKANLMCKTDIKCRLAKSTLTLIPLLGTHEVIFAFVMDEHARGTLRFIKLFTELSFTSFQGLMVAILYCFVNNEVQLEFRKSWERWRLEHLHIQRDSSMKPLKCPTSSLSSGATAGSSMYTATCQASCS
modifications: here or on the partner: Halo-tag labelled with CA-SS-SulfoCy3; SNAP-tag labelled with BG-SS-SulfoCy5
As to B1, the binding entry was “no binding”.
